Results are given in words; binding and its absence hold for the method and conditions named. In cells and extracts the contact can be indirect. These calls come from enrichment with a bait or labelling near it, and not all partners need be listed. For some of these results: A no says only that the protein was not detected with the bait.
Key:
His6-MBP-FtsH (E. coli) = His6-MBP-FtsH (E. coli) (UniProt P0AAI3); experiment: affinity purification with mass spectrometry; His6-MBP-FtsH overproduced in E. coli BL21 Δarg/Δlys grown at 30°C (slow), 37°C (medium) or 40°C (fast growth); Ni-NTA affinity purification from the lysate; co-purified proteins identified by LC-MS/MS with a super-SILAC standard; enriched >2-fold over the His6-MBP empty-vector control, p<0.05, or 'FtsH only'
Strep-LpxC (E. coli) = biological target: T1, Strep-LpxC (E. coli) (UniProt P0A725); experiment: affinity purification with mass spectrometry; Strep-LpxC overproduced in E. coli BL21 Δarg/Δlys grown at 30°C (slow), 37°C (medium) or 40°C (fast growth); Strep-tactin affinity purification from the lysate; co-purified proteins identified by LC-MS/MS with a super-SILAC standard; enriched >2-fold over the Strep-tag empty-vector control, p<0.05, or 'LpxC only'
T1 sequence: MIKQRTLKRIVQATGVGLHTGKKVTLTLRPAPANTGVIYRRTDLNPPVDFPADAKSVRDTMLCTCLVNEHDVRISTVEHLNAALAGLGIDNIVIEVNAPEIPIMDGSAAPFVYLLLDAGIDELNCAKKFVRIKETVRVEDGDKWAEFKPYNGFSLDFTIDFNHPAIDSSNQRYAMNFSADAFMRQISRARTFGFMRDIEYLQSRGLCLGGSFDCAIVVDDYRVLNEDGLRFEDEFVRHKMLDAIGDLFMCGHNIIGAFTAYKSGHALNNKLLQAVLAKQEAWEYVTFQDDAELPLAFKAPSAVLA

The chains behind the UniProt entries cited, without tags or fusion partners. Where a name states a change or a piece, a line headed by the entry shows the natural chain unless it says otherwise.
UniProt P0AAI3: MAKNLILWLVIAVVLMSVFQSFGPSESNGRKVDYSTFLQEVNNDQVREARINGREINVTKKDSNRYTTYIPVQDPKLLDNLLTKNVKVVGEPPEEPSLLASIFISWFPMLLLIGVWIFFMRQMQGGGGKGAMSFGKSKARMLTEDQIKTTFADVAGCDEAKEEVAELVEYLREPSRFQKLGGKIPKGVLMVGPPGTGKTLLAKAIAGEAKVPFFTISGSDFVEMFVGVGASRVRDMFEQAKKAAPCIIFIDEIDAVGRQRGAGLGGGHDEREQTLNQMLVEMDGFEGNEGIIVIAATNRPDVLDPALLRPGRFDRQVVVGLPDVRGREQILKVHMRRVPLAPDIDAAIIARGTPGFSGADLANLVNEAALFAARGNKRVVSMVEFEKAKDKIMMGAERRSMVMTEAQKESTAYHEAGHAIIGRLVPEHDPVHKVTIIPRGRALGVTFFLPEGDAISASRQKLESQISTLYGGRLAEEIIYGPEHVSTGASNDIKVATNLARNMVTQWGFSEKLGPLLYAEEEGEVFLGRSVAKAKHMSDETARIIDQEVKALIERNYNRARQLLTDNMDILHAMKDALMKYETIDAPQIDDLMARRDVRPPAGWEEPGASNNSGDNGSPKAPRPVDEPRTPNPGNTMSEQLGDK

[1] = biological target: His6-MBP-FtsH (E. coli), P0AAI3; experiment: affinity purification with mass spectrometry; His6-MBP-FtsH overproduced in E. coli BL21 Δarg/Δlys grown at 30°C (slow), 37°C (medium) or 40°C (fast growth); Ni-NTA affinity purification from the lysate; co-purified proteins identified by LC-MS/MS with a super-SILAC standard; enriched >2-fold over the His6-MBP empty-vector control, p<0.05, or 'FtsH only'; settings: remark: other sources report otherwise

| Binder | binding (His6-MBP-FtsH (E. coli)) | binding (Strep-LpxC (E. coli)) | binding [1] |
| --- | --- | --- | --- |
| ArnA (enzyme, UniProt P77398 1-660) MKTVVFAYHDMGCLGIEALLAAGYEISAIFTHTDNPGEKAFYGSVARLAAERGIPVYAPDNVNHPLWVERIAQLSPDVIFSFYYRHLIYDEILQLAPAGAFNLHGSLLPKYRGRAPLNWVLVNGETETGVTLHRMVKRADAGAIVAQLRIAIAPDDIAITLHHKLCHAARQLLEQTLPAIKHGNILEIAQRENEATCFGRRTPDDSFLEWHKPASVLHNMVRAVADPWPGAFSYVGNQKFTVWSSRVHPHASKAQPGSVISVAPLLIACGDGALEIVTGQAGDGITMQGSQLAQTLGLVQGSRLNSQPACTARRRTRVLILGVNGFIGNHLTERLLREDHYEVYGLDIGSDAISRFLNHPHFHFVEGDISIHSEWIEYHVKKCDVVLPLVAIATPIEYTRNPLRVFELDFEENLRIIRYCVKYRKRIIFPSTSEVYGMCSDKYFDEDHSNLIVGPVNKPRWIYSVSKQLLDRVIWAYGEKEGLQFTLFRPFNWMGPRLDNLNAARIGSSRAITQLILNLVEGSPIKLIDGGKQKRCFTDIRDGIEALYRIIENAGNRCDGEIINIGNPENEASIEELGEMLLASFEKHPLRHHFPPFAGFRVVESSSYYGKGYQDVEHRKPSIRNAHRCLDWEPKIDMQETIDETLDFFLRTVDLTDKPS | binds | binds |  |
| DksA (protein, UniProt P0ABS1 1-151) MQEGQNRKTSSLSILAIAGVEPYQEKPGEEYMNEAQLAHFRRILEAWRNQLRDEVDRTVTHMQDEAANFPDPVDRAAQEEEFSLELRNRDRERKLIKKIEKTLKKVEDEDFGYCESCGVEIGIRRLEARPTADLCIDCKTLAEIREKQMAG | binds | binds |  |
| HldE (enzyme, UniProt P76658 1-477) MKVTLPEFERAGVMVVGDVMLDRYWYGPTSRISPEAPVPVVKVNTIEERPGGAANVAMNIASLGANARLVGLTGIDDAARALSKSLADVNVKCDFVSVPTHPTITKLRVLSRNQQLIRLDFEEGFEGVDPQPLHERINQALSSIGALVLSDYAKGALASVQQMIQLARKAGVPVLIDPKGTDFERYRGATLLTPNLSEFEAVVGKCKTEEEIVERGMKLIADYELSALLVTRSEQGMSLLQPGKAPLHMPTQAQEVYDVTGAGDTVIGVLAATLAAGNSLEEACFFANAAAGVVVGKLGTSTVSPIELENAVRGRADTGFGVMTEEELKLAVAAARKRGEKVVMTNGVFDILHAGHVSYLANARKLGDRLIVAVNSDASTKRLKGDSRPVNPLEQRMIVLGALEAVDWVVSFEEDTPQRLIAGILPDLLVKGGDYKPEEIAGSKEVWANGGEVLVLNFEDGCSTTNIIKKIQQDKKG | binds | binds |  |
| LapB, P0AB58 1-389 (protein) MLELLFLLLPVAAAYGWYMGRRSAQQNKQDEANRLSRDYVAGVNFLLSNQQDKAVDLFLDMLKEDTGTVEAHLTLGNLFRSRGEVDRAIRIHQTLMESASLTYEQRLLAIQQLGRDYMAAGLYDRAEDMFNQLTDETDFRIGALQQLLQIYQATSEWQKAIDVAERLVKLGKDKQRVEIAHFYCELALQHMASDDLDRAMTLLKKGAAADKNSARVSIMMGRVFMAKGEYAKAVESLQRVISQDRELVSETLEMLQTCYQQLGKTAEWAEFLQRAVEENTGADAELMLADIIEARDGSEAAQVYITRQLQRHPTMRVFHKLMDYHLNEAEEGRAKESLMVLRDMVGEKVRSKPRYRCQKCGFTAYTLYWHCPSCRAWSTIKPIRGLDGL |  |  | no binding |

From publication PMC6339880
